Results taken from patent publication EP2108954A1, “A test system for detecting intracellular cyclic nucleotide level and methods and uses thereof” (Max-Planck-Gesellschaft zur Förderung der Wissenschaften …, priority 2008, dated 2009).
At least one structure is not confirmed: it was looked up by name or label, or the drawing left a doubt.

Test system: hCNGA2
Assay: Gs coupling test: hCNGA2 whole-cell current in HEK293 cells
Assay type: cell-based, human
Settings: cells solely expressing CNGA2; Etb 100 nM, forskolin 10 µM; -80 mV
Description: HEK293 cells were cultured as described by Wicher and colleagues (Wicher et al., J. Biol. Chem. 281, 3227-36 (2006)). In brief, HEK293 cells were cultured at a density of ∼2*10^4 per 35-mm dish and transfected with 1 µg pcDNA3-DOR22a-GFP and 1 µg pcDNA3-DOR83b-GFP (Neuhaus, et al., Nat. Neurosci. 8, 15-17 (2005); DNAs were a generous gift of Dr. E. Neuhaus and Dr. H. Hatt) using Roti-Fect transfection kit (Roth, Karlsruhe, Germany). In some experiments we transfected cells with pcDNA3-DOR22a-GFP or pcDNA3-DOR83b-GFP alone. We also examined the properties of DOR47a, which was cloned, using standard molecular biology methods into a pcDNA3.1(-) expression vector. To test for putative G-protein coupling, cells were transfected with the respective OR-DNA together with 1.5 µg hHCN2/pcDNA3 (provided by M. Biel, Munich, Germany), with 1 µg hKCNQ4/pcDNA3.1 or with 1 µg hCNGA2/pCMV6-XL4 (Origene, Rockville, MD, USA).
Ion currents in HEK293 cells were measured with the patch-clamp technology as described (Wicher et al, J. Biol. Chem. 281, 3227-36 (2006)). In brief, ion currents in HEK293 cells were measured at room temperature using whole-cell patch-clamp with appropriate compensation of series resistance and of capacitive currents. Additional experiments were performed in the outside-out configuration. […]

Compound: C=C[C@@]1(C)CC(=O)[C@]2(O)[C@@]3(C)[C@@H](O)CCC(C)(C)[C@@H]3[C@H](O)[C@H](OC(C)=O)[C@@]2(C)O1 [forskolin]
- response of hCNGA2 current: stimulating effect
